Test results from patent US20250339503A1, “PEPTIDES AND COMBINATIONS OF PEPTIDES FOR USE IN IMMUNOTHERAPY AGAINST ACUTE MYELOID LEUKEMIA (AML) AND OTHER HEMATOLOGICAL NEOPLASMS” (Eberhard Karls Universität Tübingen Medizinische Fakultät, priority 2022, published 2025).

System: HLA class I and HLA class II immunopeptidomes of primary AML samples
Assay: Mass spectrometry-based immunopeptidome analysis, comparative profiling
Design: species or system human
Details: cryptic HLA class I peptides, AML immunopeptidomes of matching allotype

Sequence	allotype-specific presentation frequency
GPDDGRGVL [P2_cryB*02, cryptic HLA-B*07 peptide, off-frame from TSPAN2]	42%
ILLSPPLLTI [P1_cryA*02, cryptic HLA-A*02 peptide from the UTR5 region of CHRFAM7A]	26%
